Experimental data: PubChem BioAssay AID602196 (INSERM, 2012)
Assay: 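Modifiers of cisplatin sensitivity in A549 cells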. System: human A549 lung cancer cells. Reagents: siRNA pair against human genes. Duration: 48 h transfection before cisplatin; time from cisplatin to read-out not stated. Treatment: cisplatin at a dose killing half of control-siRNA cells; exact dose and duration not given. Measurement: 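Shift in cisplatin death relative to control siRNA, from -50 (all cells die) to +50 (no cells die); siRNAs harmful on their own scored 0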. Scale: two-siRNA summed score (-2 to +2): higher = both siRNAs protect from cisplatin killing; -2 means both sensitise; mean protection from cisplatin (shift in death): higher = protection from cisplatin killing. Active means: 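siRNAs harmful alone (LDH or WST-1) get 0; others get +1 for less and -1 for more cisplatin killing; genes are active when the two siRNAs give the same sign, summing to ±2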. Meaning of the calls: active = both siRNAs shift cisplatin killing the same way; inactive = no consistent shift, or siRNA harmful alone.
In all, the deposit lists about 23,000 reagents; below is a random part of them. Of all reagents, 455 (2%) were called active. 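Active includes both protection and sensitisation; some change values fall well beyond the stated -50 to +50 range.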 Further read-outs or replicates are left out here. Not given: the amount of reagent.

Against TP73 the deposit lists two-siRNA summed score (-2 to +2) = 0; mean protection from cisplatin (shift in death) (%) = 15; inactive. ZFP82 showed two-siRNA summed score (-2 to +2) = 0; mean protection from cisplatin (shift in death) (%) = 0.3; inactive. TTC39C showed two-siRNA summed score (-2 to +2) = 0; mean protection from cisplatin (shift in death) (%) = -5.3; inactive. Silencing of BCCIP gave: two-siRNA summed score (-2 to +2) = 0; mean protection from cisplatin (shift in death) (%) = 14.8; inactive. WNT5B showed two-siRNA summed score (-2 to +2) = 0; mean protection from cisplatin (shift in death) (%) = 1.6; inactive. FBRS gave two-siRNA summed score (-2 to +2) = 0; mean protection from cisplatin (shift in death) (%) = -6.3; inactive.

A run of entries from the list above:
ZFP82 — two-siRNA summed score (-2 to +2) = 0; mean protection from cisplatin (shift in death) (%) = 0.3; Outcome = inactive
TTC39C — two-siRNA summed score (-2 to +2) = 0; mean protection from cisplatin (shift in death) (%) = -5.3; Outcome = inactive

Next records follow.
SLC6A15 gave two-siRNA summed score (-2 to +2) = 0; mean protection from cisplatin (shift in death) (%) = 5.3; inactive. After knock-down of LMNA the results were two-siRNA summed score (-2 to +2) = 0; mean protection from cisplatin (shift in death) (%) = -13; inactive. MICAL1 showed two-siRNA summed score (-2 to +2) = 0; mean protection from cisplatin (shift in death) (%) = 8.1; inactive. TTC39B showed two-siRNA summed score (-2 to +2) = 0; mean protection from cisplatin (shift in death) (%) = 0.6; inactive. For LOC200810 the deposit lists two-siRNA summed score (-2 to +2) = 1; mean protection from cisplatin (shift in death) (%) = 19.7; inactive. THAP6 showed two-siRNA summed score (-2 to +2) = -1; mean protection from cisplatin (shift in death) (%) = -13.8; inactive.
